# Data: the supplement of paper PMC9135407
# “And” between values parts separate entries of the source, which are not always exact repeats. Identical values can stand only once. Counter-ions that a name gives are not always drawn. ± gives the standard deviation of the averaged measurements. The list shows a part of the results. Part of the spread comes from offsets between plates or batches.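 Assay uses culture-activated primary human stellate myofibroblasts; lipid droplet recovery indicates inactivation. Measured: proportion of Hoechst-counted cells over a plate-specific Bodipy cutoff, duplicate wells, DMSO and nortriptyline as per-plate negative and positive controls. A hit scores, control-normalized, above the plate's top-tenth-percentile nortriptyline wells or ranks among its three best wells. Final well concentrations not reported.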
# System: primary human hepatic stellate cells (donor 1)
# Test: percent Bodipy-positive cells; higher = more lipid droplet accumulation
# Conditions: 48 h
# Description: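 Primary lipid accumulation screen in primary human hepatic stellate cell myofibroblasts (donor 1, passage 8) in 384-well plates. 100 nL of library compound was pin-transferred into 30 µL medium in duplicate, and cells were treated for 48 h. The 'Scaled' score combines distance from plate baseline, toxicity and reproducibility penalties, and is normalised to nortriptyline (positive) and DMSO (negative) controls on each plate. A hit is defined as scaled >0.85 or among the top 3 wells per plate.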
# [1] = library stock concentration: 10 mM
# [2] = library stock concentration: 3.33 mM
smiles,measurement,setting,value
C[n+]1cc2c3c(ccc2c2ccc4cc5c(cc4c21)OCO5)OCO3 [Sanguinarine chloride],percent Bodipy-positive cells,[1],87.3 ± 3.8%
C[n+]1cc2c3c(ccc2c2ccc4cc5c(cc4c21)OCO5)OCO3 [Sanguinarine sulfate],percent Bodipy-positive cells,library stock concentration: 4.7 mM,97.65 ± 0.96%
same,percent Bodipy-positive cells,[1],100%
Cc1cc(/C=C2/SC(=S)NC2=O)c(C)n1-c1cccnc1 [Optovin],percent Bodipy-positive cells,[2],34.6 ± 10%
same,percent Bodipy-positive cells,[1],31.1 ± 4.3%
Cc1cc(C)c(Nc2ccnc(Nc3ccc(C#N)cc3)n2)c(C)c1 [Dapivirine (TMC120)],percent Bodipy-positive cells,[2],33.8 ± 5.2%
CCN(CC)CCCCCCCCOC(=O)c1cc(OC)c(OC)c(OC)c1.Cl [TMB-8 hydrochloride],percent Bodipy-positive cells,[1],93.1 ± 1.7%
CC(C(O)c1ccc(O)cc1)N1CCC(Cc2ccccc2)CC1.CC(C(O)c1ccc(O)cc1)N1CCC(Cc2ccccc2)CC1.O=C(O)C(O)C(O)C(=O)O (stereo unspecified) [Ifenprodil tartrate],percent Bodipy-positive cells,[1],94.5 ± 0.62%
O=C(Nc1cccc(Nc2nccc(Nc3cccc(C(F)(F)F)c3)n2)c1)C1CC1 [Aurora Kinase Inhibitor III],percent Bodipy-positive cells,[2],10.3 ± 5%
Nc1ncnc2c1ncn2[C@@H]1O[C@H](CO)[C@@H](O)[C@H]1O [Adenosine],percent Bodipy-positive cells,[2],17.5 ± 6.5%
same,percent Bodipy-positive cells,library stock concentration: 7.5 mM,1.5 ± 0.57%
Clc1ccc(CSC(Cn2ccnc2)c2ccc(Cl)cc2Cl)cc1 (stereo unspecified) [Sulconazole Nitrate],percent Bodipy-positive cells,[2],15.3 ± 12%
same,percent Bodipy-positive cells,[1],90.947 ± 0.053%
Clc1ccc(CSC(Cn2ccnc2)c2ccc(Cl)cc2Cl)cc1 (stereo unspecified) [Sulconazole nitrate],percent Bodipy-positive cells,,17.2 ± 2.5%
same,percent Bodipy-positive cells,[1],72.5 ± 8.8%
O=C(c1ccc(Nc2nccc(-c3cc4ccccc4s3)n2)cc1)N1CCC(N2CCCC2)CC1,percent Bodipy-positive cells,[1],94.1 ± 8.3%
O=C(c1ccc(Nc2nccc(-c3cc4ccccc4s3)n2)cc1)N1CCC(N2CCCC2)CC1 [IKK-16 (IKK Inhibitor VII)],percent Bodipy-positive cells,[1],100%
CCN1CCC(n2cc(CNc3cc(Cl)c4ncc(C#N)c(Nc5ccc(F)c(Cl)c5)c4c3)nn2)CC1,percent Bodipy-positive cells,[1],99.88 ± 0.18%
O=C(/C=C/c1ccccc1)NC(NC(=S)Nc1cccc2cccnc12)C(Cl)(Cl)Cl (stereo unspecified) [Salubrinal],percent Bodipy-positive cells,[2],11.6 ± 4.6%
same,percent Bodipy-positive cells,[1],24.7% and 6.22%
CC(=O)O[C@@]12CO[C@@H]1C[C@H](O)[C@@]1(C)C(=O)[C@H](O)C3=C(C)[C@@H](OC(=O)[C@H](O)[C@@H](NC(=O)OC(C)(C)C)c4ccccc4)C[C@@](O)([C@@H](OC(=O)c4ccccc4)[C@H]21)C3(C)C [Docetaxel],percent Bodipy-positive cells,[2],9.9 ± 2.3%
same,percent Bodipy-positive cells,[1],8.34 ± 0.11%
CC(=O)O[C@@]12CO[C@@H]1C[C@H](O)[C@@]1(C)C(=O)[C@H](O)C3=C(C)[C@@H](OC(=O)[C@H](O)[C@@H](NC(=O)OC(C)(C)C)c4ccccc4)C[C@@](O)([C@@H](OC(=O)c4ccccc4)[C@H]21)C3(C)C,percent Bodipy-positive cells,[1],7.44 ± 3.4%
CCCCCCCCCCCCCCCCCC(=O)OCC [Stearic Acid ethyl ester],percent Bodipy-positive cells,library stock concentration: 1 mM,9.48 ± 6.4%
COc1ccccc1N1CCN(CCN(C(=O)C2CCCCC2)c2ccccn2)CC1,percent Bodipy-positive cells,[2],9.01 ± 6.9%
same,percent Bodipy-positive cells,[1],18.9% and 31%
CN1C(=O)CC(c2ccccc2)C1=O (stereo unspecified) [Phensuximide],percent Bodipy-positive cells,,6.28 ± 0.49%
CN1C(=O)CC(c2ccccc2)C1=O (stereo unspecified),percent Bodipy-positive cells,[1],30 ± 9%
Nc1ccn([C@@H]2O[C@H](CO)[C@@H](O)C2(F)F)c(=O)n1 [Gemcitabine],percent Bodipy-positive cells,[2],22.7 ± 6.3%
same,percent Bodipy-positive cells,[1],38.7 ± 3.7%
Nc1ccn([C@@H]2O[C@H](CO)[C@@H](O)C2(F)F)c(=O)n1 [Gemcitabine hydrochloride],percent Bodipy-positive cells,[1],55.6 ± 5.7%
Nc1ccn([C@@H]2O[C@H](CO)[C@@H](O)C2(F)F)c(=O)n1 [Gemcitabine HCl],percent Bodipy-positive cells,library stock concentration: 7.6 mM,17.3 ± 8%
CC(O)C(=O)O.N (stereo unspecified),percent Bodipy-positive cells,[1],20.4 ± 3.3%
Fc1ccc(Cl)cc1-c1nc(Nc2ccncc2)c2nccnc2n1,percent Bodipy-positive cells,[1],6.14 ± 1.8%
CO[C@H]1C[C@@H]2CC[C@@H](C)[C@@](O)(O2)C(=O)C(=O)N2CCCC[C@H]2C(=O)O[C@H]([C@H](C)C[C@@H]2CC[C@@H](OCCO)[C@H](OC)C2)CC(=O)[C@H](C)/C=C(\C)[C@@H](O)[C@@H](OC)C(=O)[C@H](C)C[C@H](C)/C=C/C=C/C=C/1C,percent Bodipy-positive cells,library stock concentration: 80 uM,7.76 ± 0.58%
same,percent Bodipy-positive cells,library stock concentration: 400 uM,14 ± 6.8%
same,percent Bodipy-positive cells,library stock concentration: 2 mM,7.71 ± 3.4%
same,percent Bodipy-positive cells,[1],19.5 ± 4%
CO[C@H]1C[C@@H]2CC[C@@H](C)[C@@](O)(O2)C(=O)C(=O)N2CCCC[C@H]2C(=O)O[C@H]([C@H](C)C[C@@H]2CC[C@@H](OCCO)[C@H](OC)C2)CC(=O)[C@H](C)/C=C(\C)[C@@H](O)[C@@H](OC)C(=O)[C@H](C)C[C@H](C)/C=C/C=C/C=C/1C [Everolimus (RAD001)],percent Bodipy-positive cells,[2],4.79 ± 3.9%
same,percent Bodipy-positive cells,[1],17 ± 6.9%
CN(C)CCN(Cc1ccccc1)c1ccccn1 [Tripelennamine citrate],percent Bodipy-positive cells,library stock concentration: 4.5 mM,28.9 ± 8.6%
CN(C)CCN(Cc1ccccc1)c1ccccn1 [Tripelennamine HCl],percent Bodipy-positive cells,[2],15.4 ± 4.3%
same,percent Bodipy-positive cells,[1],67.2 ± 2.8%
CN(C)CCN(Cc1ccccc1)c1ccccn1,percent Bodipy-positive cells,[1],35.6 ± 5.5%
CC1CNc2c(cccc2S(=O)(=O)N[C@@H](CCCNC(=N)N)C(=O)N2CC[C@@H](C)C[C@@H]2C(=O)O)C1 (stereo partly specified) [Argatroban],percent Bodipy-positive cells,[2],5.39 ± 0.84%
same,percent Bodipy-positive cells,[1],22.4 ± 18%
